Measured values as given in paper PMC7394235.
Results are given in words; binding and its absence hold for the method and conditions named. Sequences can lack the tags named with a protein.

Protein sequences, listed by entry. Tags and fused reporters are not part of them.
UniProt O23320: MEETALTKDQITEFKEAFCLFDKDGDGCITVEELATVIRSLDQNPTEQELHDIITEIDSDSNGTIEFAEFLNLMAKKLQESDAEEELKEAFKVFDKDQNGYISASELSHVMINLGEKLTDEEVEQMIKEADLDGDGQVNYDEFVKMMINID

Target: T1, MLO10-CT-BD (C-terminal of AtMLO10, 434-569 aa) (Arabidopsis thaliana) (UniProt Q9FKY5)
T1 sequence: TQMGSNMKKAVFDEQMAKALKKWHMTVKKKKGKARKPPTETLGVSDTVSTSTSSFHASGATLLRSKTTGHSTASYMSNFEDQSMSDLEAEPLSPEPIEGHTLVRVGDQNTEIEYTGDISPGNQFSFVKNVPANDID
Assay: two-hybrid; MLO10-CT or its fragments P1-P5 as BD fusion, CaMs/CMLs as AD fusion (pGADT7), co-transformed into yeast AH109; selection on SD lacking Leu, Trp, His with 1.5 mM 3-AT; X-Gal filter assay

binding: no binding
Substance: CML8 (AD fusion in pGADT7) (from UniProt O23320 1-151)
